# Reference: PubChem BioAssay AID504444 (National Center for Advancing Translational Sciences (NCATS), 2011)
# Out of some 360,000 compounds screened, about 7,500 (2.1%) were called active. Inconclusive means that the source gave no clear call. Such entries were picked first, then a sample of the others. The call rests on the fitted dose curve; in most records, active means well fitted inhibition curve with a large enough effect; inconclusive means small, poorly fitted or top-dose-only effect, or effect the other way; inactive means flat fitted curve, though single readings scatter. Where the call is inconclusive, the potency comes from a doubtful curve fit.
# Test: Nrf2 qHTS screen for inhibitors; further: nearly all actives have a fitted effect of over 60% in size
# Conditions: A549 ARE-Fluc reporter, luciferase luminescence, 18-24 h; activity change, negative = inhibition: at 46 µM (top of the series)
# How it was run: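 In this cell-based qHTS, ARE-driven firefly luciferase in A549 cells reports Nrf2 activity; the luminescent signal after BugLite lysis is the measured value, with a prior CellTiter-Fluor read for cell health.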
# On the % scale 0 is the no-effect control and ±100 the full control effect; potency means the concentration at half of the fitted maximal effect.
Structure (SMILES),"activity change, negative = inhibition",Potency
COc1ccccc1CNC(=O)c1ccc(-c2nc(CS(=O)(=O)c3ccc(C)cc3)c(C)o2)cc1,inactive: -8.7%,–
Nc1ccc2nc(-c3ccccc3)[nH]c2c1,–,"inconclusive: 14.6 µM [activator, partial curve]"
CN1CCCC1CCNc1ccc2oc3ccccc3c(=O)c2c1 (stereo not drawn),–,"inconclusive: 25.9 µM [activator, single point]"
Cc1ccc2ccc(C3C(=O)c4ccccc4C3=O)nc2c1,–,"inconclusive: 2.31 µM [activator, full curve]"
CC1(C)CC(=O)c2c(oc3c(Cl)cc(NS(=O)(=O)c4ccc(Br)cc4)cc23)C1,inactive: -3.89%,–
COc1ccc(S(=O)(=O)/N=C2\C=C(Nc3ccc(O)cc3)C(=O)c3ccccc32)cc1,–,"inconclusive: 18.4 µM [falling, single point]"
Cc1cc2nc(-c3ccc(SCc4ccccn4)nc3)[nH]c2cc1C,–,"inconclusive: 25.9 µM [falling, single point]"
O=C(Nc1ccc(Br)cc1F)N1CCC(CN2CCc3ccccc3C2)CC1,–,"inconclusive: 29.1 µM [falling, single point]"
Oc1ccc(-c2csc(Nc3ncccn3)n2)cc1,–,"inconclusive: 8.2 µM [activator, partial curve]"
CCOc1ccc(NC(=O)c2sccc2-n2cccc2)cc1,–,"inconclusive: 11.6 µM [activator, partial curve, poor fit]"
CC(C)CC1Nc2ccc(C(=O)NCCCN3CCCCC3C)cc2NC1=O (stereo not drawn),–,"inconclusive: 3.26 µM [activator, partial curve, poor fit]"
COC(=O)C1=C[C@@H](C(=O)OC)C2C3=C(C(=O)[C@@]2(C)NC(=O)c2ccccc2)[C@H](C)[C@@H]2C(=O)N(C)C(=O)[C@@H]2[C@@H]3C1 (stereo partly drawn),inactive: 22.4%,–
Cc1ccc(C(=O)NCC(=O)N2CCCCCCC2)cc1,–,"inconclusive: 14.6 µM [activator, partial curve]"
Cc1cc(C)c[n+](C2=C([O-])c3ccccc3C(=O)/C2=N\S(=O)(=O)c2cccs2)c1,–,active: 20.6 µM
Cc1ccc(CCNC(=O)c2cc3c(-c4ccccc4F)nn(C)c3s2)cc1,–,"inconclusive: 23.1 µM [falling, partial curve, poor fit]"
CC(=O)Nc1ccc(S(=O)(=O)NN=CCCc2ccccc2)cc1,inactive: -7.57%,–
CC(NC(=O)c1ccc(-c2ccccc2)cc1)C(c1ccccc1)N1CCOCC1 (stereo not drawn),–,"inconclusive: 29.1 µM [falling, single point]"
COc1ccc(CN(C)C(=O)CCc2ccc(S(=O)(=O)N3CCCCCC3)cc2)c(OC)c1,–,"inconclusive: 29.1 µM [falling, single point]"

# An excerpt of these results, as tab-separated lines:
Structure (SMILES)	activity change, negative = inhibition	Potency
O=C(Nc1ccc(Br)cc1F)N1CCC(CN2CCc3ccccc3C2)CC1	–	inconclusive: 29.1 µM [falling, single point]
CC(C)CC1Nc2ccc(C(=O)NCCCN3CCCCC3C)cc2NC1=O (stereo not drawn)	–	inconclusive: 3.26 µM [activator, partial curve, poor fit]
